In patent publication CN103421115A:
These are yes or no findings as the source states them, for the method shown. Some results given as binding are weak or reduced against the parent protein; the word gives no strength.

Chains of the proteins cited; added tags and fusions are not shown. Residues count along the entry.
UniProt P28907, residues 43-300: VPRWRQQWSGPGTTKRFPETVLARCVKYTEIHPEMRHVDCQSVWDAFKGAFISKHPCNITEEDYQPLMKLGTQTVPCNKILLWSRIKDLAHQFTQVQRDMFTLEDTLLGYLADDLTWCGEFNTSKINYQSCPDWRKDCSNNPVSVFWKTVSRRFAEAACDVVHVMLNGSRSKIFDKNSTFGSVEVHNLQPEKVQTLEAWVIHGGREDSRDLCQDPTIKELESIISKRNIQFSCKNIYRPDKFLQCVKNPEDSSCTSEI

Target: 人工合成的CD38多肽 (GenBank:BAA18966.1) (UniProt P28907)
Test: ELISA of crude periplasmic extract on coated CD38, anti-HA detection, OD405; a clone is positive when sample OD is more than 3 times control OD

| binding | Binder |
| --- | --- |
| binds | CD38纳米抗体 VHH链 SEQ ID NO:15 (VHH) VHH: QVQLQESGGGSVQAGGSLRLSCAASEYNFSTFCMGWFRQALGQEREGVAAISTNPLPTAYADSVKGRFTISRDGDKNVAYLEMHNLRPDDTAMYYCAADRLCGALCSQTQFDYWGQGTQVTVSS |
| binds | CD38纳米抗体 VHH链 SEQ ID NO:16 (VHH) VHH: QVQLQESGGGSVQAGGSLRLSCAASEYTSCTSCMGWFRQALGQEREGVAAISKIGLATAYADSVKGRFTISRDGDKNVAYLEMHNLRPDDTAMYYCAAHRVCRVLCSQRNYVYWGQGTQVTVSS |
